Binding data for 15 molecules are collected here from article PMC12700935.

By UniProt entry, the sequences of proteins in these tests, tags left out.
UniProt P06537: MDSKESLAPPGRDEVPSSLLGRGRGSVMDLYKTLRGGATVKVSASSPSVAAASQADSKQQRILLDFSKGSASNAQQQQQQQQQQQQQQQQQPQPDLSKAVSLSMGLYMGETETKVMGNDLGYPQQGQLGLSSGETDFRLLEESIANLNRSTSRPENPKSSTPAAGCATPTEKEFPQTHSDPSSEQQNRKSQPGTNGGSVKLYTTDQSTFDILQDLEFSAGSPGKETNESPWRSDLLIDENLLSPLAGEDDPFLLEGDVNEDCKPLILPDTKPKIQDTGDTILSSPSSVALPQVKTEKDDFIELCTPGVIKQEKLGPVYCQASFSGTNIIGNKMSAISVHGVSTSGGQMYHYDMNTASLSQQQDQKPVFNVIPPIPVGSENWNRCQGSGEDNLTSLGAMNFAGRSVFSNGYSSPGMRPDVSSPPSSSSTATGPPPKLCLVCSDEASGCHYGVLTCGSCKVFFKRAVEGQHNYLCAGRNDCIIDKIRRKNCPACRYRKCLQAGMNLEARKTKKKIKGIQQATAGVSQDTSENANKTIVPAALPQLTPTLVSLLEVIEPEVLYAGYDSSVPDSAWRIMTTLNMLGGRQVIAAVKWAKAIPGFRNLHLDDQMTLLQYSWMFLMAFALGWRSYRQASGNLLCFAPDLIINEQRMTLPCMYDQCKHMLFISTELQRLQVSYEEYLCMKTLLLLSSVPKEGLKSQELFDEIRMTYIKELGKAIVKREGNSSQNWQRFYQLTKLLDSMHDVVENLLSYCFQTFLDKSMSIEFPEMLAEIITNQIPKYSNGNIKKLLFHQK
UniProt P53566: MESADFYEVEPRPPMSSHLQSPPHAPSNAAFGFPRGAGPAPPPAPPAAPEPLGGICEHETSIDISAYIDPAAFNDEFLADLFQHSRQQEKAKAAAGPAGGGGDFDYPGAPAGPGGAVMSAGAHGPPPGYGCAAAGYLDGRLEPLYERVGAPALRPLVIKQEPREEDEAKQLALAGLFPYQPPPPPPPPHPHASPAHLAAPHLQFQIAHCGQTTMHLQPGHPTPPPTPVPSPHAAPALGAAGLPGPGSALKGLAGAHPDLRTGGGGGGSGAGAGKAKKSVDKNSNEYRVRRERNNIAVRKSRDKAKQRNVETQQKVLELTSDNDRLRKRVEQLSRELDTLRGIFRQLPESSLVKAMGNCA
UniProt P28033: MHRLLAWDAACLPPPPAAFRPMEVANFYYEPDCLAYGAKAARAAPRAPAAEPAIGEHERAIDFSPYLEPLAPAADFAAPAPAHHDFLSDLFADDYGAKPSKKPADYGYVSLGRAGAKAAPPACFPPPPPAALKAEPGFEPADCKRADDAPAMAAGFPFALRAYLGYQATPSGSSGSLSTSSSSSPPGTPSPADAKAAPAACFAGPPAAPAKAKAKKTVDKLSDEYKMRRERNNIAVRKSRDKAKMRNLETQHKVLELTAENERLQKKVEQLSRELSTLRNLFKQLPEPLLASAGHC
UniProt Q570Y9: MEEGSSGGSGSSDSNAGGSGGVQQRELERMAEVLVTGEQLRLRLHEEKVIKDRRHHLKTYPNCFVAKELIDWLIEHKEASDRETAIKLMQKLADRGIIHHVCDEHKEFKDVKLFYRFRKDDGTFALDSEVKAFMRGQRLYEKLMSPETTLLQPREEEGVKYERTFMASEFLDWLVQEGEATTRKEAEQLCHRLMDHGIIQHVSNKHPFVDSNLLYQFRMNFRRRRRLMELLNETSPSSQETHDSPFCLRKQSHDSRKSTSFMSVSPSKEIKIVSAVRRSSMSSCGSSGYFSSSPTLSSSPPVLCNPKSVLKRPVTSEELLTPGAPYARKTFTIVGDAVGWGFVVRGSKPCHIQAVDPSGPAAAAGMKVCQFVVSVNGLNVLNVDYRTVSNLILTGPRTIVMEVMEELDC
UniProt P45448: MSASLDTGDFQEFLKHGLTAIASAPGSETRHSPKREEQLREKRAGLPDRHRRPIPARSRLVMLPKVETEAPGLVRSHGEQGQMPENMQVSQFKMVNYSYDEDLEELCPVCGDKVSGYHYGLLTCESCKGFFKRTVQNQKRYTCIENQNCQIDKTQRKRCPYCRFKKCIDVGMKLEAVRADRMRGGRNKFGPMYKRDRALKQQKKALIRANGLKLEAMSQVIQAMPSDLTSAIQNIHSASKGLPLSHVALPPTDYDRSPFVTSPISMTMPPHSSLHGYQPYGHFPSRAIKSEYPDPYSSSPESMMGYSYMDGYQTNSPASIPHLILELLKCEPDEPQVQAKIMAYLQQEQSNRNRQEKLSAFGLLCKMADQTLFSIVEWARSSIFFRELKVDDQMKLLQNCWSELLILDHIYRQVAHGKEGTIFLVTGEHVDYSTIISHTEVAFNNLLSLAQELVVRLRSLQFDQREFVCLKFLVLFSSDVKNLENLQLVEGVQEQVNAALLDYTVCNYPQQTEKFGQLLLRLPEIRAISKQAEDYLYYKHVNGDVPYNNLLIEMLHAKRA
UniProt Q60644: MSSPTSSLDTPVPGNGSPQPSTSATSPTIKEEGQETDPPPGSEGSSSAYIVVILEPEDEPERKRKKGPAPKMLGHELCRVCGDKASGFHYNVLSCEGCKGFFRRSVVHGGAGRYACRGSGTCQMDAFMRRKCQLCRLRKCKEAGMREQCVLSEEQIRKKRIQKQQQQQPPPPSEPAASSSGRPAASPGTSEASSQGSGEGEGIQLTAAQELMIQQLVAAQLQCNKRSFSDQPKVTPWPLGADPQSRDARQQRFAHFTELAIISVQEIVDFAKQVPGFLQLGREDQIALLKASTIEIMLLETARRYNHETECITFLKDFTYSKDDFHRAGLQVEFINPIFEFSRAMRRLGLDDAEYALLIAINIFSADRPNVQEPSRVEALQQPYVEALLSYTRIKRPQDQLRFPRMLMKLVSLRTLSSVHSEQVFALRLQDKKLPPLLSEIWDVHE
UniProt Q8BRK8: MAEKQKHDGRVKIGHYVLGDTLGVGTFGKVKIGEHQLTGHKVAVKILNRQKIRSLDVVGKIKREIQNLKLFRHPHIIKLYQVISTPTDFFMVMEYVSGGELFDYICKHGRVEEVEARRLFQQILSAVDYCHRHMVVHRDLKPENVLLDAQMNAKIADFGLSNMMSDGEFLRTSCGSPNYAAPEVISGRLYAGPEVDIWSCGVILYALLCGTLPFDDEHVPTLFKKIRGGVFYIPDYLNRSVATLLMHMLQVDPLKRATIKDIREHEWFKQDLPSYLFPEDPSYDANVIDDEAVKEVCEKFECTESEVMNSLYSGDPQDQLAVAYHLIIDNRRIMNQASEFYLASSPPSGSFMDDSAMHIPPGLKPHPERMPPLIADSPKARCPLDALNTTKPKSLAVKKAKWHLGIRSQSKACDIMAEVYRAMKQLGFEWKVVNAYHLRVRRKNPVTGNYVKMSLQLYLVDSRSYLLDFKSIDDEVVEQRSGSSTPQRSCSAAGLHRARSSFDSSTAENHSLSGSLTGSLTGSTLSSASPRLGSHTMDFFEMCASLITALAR
UniProt O54950: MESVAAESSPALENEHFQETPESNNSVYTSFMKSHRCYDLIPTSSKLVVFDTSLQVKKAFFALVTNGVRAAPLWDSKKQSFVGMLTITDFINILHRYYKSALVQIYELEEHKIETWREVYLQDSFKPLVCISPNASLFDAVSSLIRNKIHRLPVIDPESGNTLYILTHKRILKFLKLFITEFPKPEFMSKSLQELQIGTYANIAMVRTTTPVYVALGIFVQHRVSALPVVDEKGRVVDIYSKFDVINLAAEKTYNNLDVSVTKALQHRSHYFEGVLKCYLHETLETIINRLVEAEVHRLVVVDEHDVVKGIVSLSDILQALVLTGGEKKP
UniProt P42230: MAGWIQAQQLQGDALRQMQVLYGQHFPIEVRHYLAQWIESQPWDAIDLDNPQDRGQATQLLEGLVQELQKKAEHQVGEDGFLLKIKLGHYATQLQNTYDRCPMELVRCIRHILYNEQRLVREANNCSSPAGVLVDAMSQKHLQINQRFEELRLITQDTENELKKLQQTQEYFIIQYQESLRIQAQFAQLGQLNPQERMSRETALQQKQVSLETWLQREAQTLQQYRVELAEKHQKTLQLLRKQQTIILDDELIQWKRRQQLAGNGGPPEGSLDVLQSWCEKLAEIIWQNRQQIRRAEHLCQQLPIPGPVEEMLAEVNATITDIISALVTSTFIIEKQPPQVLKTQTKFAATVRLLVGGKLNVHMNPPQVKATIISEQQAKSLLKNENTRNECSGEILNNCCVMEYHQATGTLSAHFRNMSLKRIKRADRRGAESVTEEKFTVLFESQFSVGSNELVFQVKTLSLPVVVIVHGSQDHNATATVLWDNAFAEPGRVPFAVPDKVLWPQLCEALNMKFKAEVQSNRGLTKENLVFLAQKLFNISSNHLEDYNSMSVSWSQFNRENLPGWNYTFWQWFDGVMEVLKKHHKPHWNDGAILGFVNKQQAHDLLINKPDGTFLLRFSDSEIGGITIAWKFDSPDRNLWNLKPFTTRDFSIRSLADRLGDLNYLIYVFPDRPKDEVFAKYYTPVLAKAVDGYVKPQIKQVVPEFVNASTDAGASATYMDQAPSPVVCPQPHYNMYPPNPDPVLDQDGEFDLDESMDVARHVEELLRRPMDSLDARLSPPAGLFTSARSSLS
UniProt P42232: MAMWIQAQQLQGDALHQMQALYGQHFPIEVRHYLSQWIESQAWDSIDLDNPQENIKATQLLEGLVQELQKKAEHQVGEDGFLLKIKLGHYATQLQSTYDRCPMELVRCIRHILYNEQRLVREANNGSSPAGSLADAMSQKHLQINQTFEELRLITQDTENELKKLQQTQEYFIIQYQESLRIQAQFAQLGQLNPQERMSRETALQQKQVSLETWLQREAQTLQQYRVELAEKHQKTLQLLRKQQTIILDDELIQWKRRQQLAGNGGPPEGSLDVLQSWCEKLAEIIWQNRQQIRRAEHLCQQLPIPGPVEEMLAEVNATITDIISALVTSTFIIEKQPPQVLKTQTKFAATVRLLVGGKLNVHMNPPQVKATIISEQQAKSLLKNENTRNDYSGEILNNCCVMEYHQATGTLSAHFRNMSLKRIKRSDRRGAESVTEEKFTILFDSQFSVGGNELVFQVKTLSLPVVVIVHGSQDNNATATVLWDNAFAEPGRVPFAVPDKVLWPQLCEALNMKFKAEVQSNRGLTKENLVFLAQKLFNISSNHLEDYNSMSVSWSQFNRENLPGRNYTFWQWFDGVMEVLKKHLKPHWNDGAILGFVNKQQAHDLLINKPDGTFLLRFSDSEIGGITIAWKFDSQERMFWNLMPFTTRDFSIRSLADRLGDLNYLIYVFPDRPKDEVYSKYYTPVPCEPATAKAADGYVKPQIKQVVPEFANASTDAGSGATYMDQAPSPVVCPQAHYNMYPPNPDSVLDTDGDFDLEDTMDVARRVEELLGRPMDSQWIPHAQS

These are yes or no findings as the source states them, for the method shown. Binding seen in cells or lysates may run through a third protein. These calls come from enrichment with a bait or labelling near it, and not all partners need be listed.

The chains are these.
B1: HNF4α (protein, UniProt P49698 1-474)
chain: MRLSKTLAGMDMADYSAALDPAYTTLEFENVQVLTMGNDTSPSEGANLNSSNSLGVSALCAICGDRATGKHYGASSCDGCKGFFRRSVRKNHMYSCRFSRQCVVDKDKRNQCRYCRLKKCFRAGMKKEAVQNERDRISTRRSSYEDSSLPSINALLQAEVLSQQITSPISGINGDIRAKKIANITDVCESMKEQLLVLVEWAKYIPAFCELLLDDQVALLRAHAGEHLLLGATKRSMVFKDVLLLGNDYIVPRHCPELAEMSRVSIRILDELVLPFQELQIDDNEYACLKAIIFFDPDAKGLSDPGKIKRLRSQVQVSLEDYINDRQYDSRGRFGELLLLLPTLQSITWQMIEQIQFIKLFGMAKIDNLLQEMLLGGSASDAPHTHHPLHPHLMQEHMGTNVIVANTMPSHLSNGQMCEWPRPRGQAATPETPQPSPPSGSGSESYKLLPGAITTIVKPPSAIPQPTITKQEAI
B2: FXR (protein, UniProt Q60641 1-488)
chain: MVMQFQGLENPIQISLHHSHRLSGFVPEGMSVKPAKGMLTEHAAGPLGQNLDLESYSPYNNVPFPQVQPQISSSSYYSNLGFYPQQPEDWYSPGIYELRRMPAETGYQGETEVSEMPVTKKPRMAAASAGRIKGDELCVVCGDRASGYHYNALTCEGCKGFFRRSITKNAVYKCKNGGNCVMDMYMRRKCQECRLRKCKEMGMLAECMYTGLLTEIQCKSKRLRKNVKQHADQTANEDDSEGRDLRQVTSTTKFCREKTELTADQQTLLDYIMDSYNKQRMPQEITNKILKEEFSAEENFLILTEMATSHVQILVEFTKKLPGFQTLDHEDQIALLKGSAVEAMFLRSAEIFNKKLPAGHADLLEERIRKSGISDEYITPMFSFYKSVGELKMTQEEYALLTAIVILSPDRQYIKDREAVEKLQEPLLDVLQKLCKMYQPENPQHFACLLGRLTELRTFNHHHAEMLMSWRVNDHKFTPLLCEIWDVQ
B3: RXRα (protein, UniProt P28700 1-467)
chain: MDTKHFLPLDFSTQVNSSSLNSPTGRGSMAVPSLHPSLGPGIGSPLGSPGQLHSPISTLSSPINGMGPPFSVISSPMGPHSMSVPTTPTLGFGTGSPQLNSPMNPVSSTEDIKPPLGLNGVLKVPAHPSGNMASFTKHICAICGDRSSGKHYGVYSCEGCKGFFKRTVRKDLTYTCRDNKDCLIDKRQRNRCQYCRYQKCLAMGMKREAVQEERQRGKDRNENEVESTSSANEDMPVEKILEAELAVEPKTETYVEANMGLNPSSPNDPVTNICQAADKQLFTLVEWAKRIPHFSELPLDDQVILLRAGWNELLIASFSHRSIAVKDGILLATGLHVHRNSAHSAGVGAIFDRVLTELVSKMRDMQMDKTELGCLRAIVLFNPDSKGLSNPAEVEALREKVYASLEAYCKHKYPEQPGRFAKLLLRLPALRSIGLKCLEHLFFFKLIGDTPIDTFLMEMLEAPHQAT
B4: ChREB (protein, UniProt Q99MZ3 1-864)
chain: MARALADLSVNLQVPRVVPSPDSDSDTDLEDPSPRRSAGGLHRSQVIHSGHFMVSSPHSDSLTRRRDQEGPVGLADFGPRSIDPTLTHLFECLSLAYSGKLVSPKWKNFKGLKLLCRDKIRLNNAIWRAWYIQYVQRRKSPVCGFVTPLQGSEADEHRKPEAVILEGNYWKRRIEVVMREYHKWRIYYKKRLRKSSREGDFLAPKQVEGGWPPPERWCEQLFSSVVPVLLGGSEEEPGGRQLLDLDCFLSDISDTLFTMTQPSPSSLQLPPEDAYVGNADMIQPDLTPLQPSLDDFMEISDFFTNYRPPQTPTSSNYIESPSFGPMADSLFSSGILAPEMPSPASSSSSSGMTPHSGNTRLQARNSCSGPLDPNPFLSSEFLLPEDPKTKIPPAPGPTPLLPFPTPVKVHGLEPCTPSPFPTMAPPPSLLPEESLLSARFPFTSAPPAPGVSTLPAPTTFVPTPQPGPGPVPFSVDHLPHGYLEPVFGPHFTVPQGMQPRCKPSSPSPGGQKASPPTLASATASPTATATARDNNPCLTQLLRAAKPEQALEPPTMPGTLLRPPESPQDTVSEIPRARAFFPPIPAPTPPRPPPGPATLAPPRSLVVPKAERLSPPASSGSERRLSGDLNSIQPSGALSVHLSPPQTVLSRGRVDNNKMENRRITHISAEQKRRFNIKLGFDTLHGLVSTLSAQPSLKVSKATTLQKTAEYILMLQQERAAMQEEAQQLRDEIEELNAAINLCQQQLPATGVPITHQRFDQMRDMFDDYVRTRTLHNWKFWVFSILIRPLFESFNGMVSTASLHSLRQTSLAWLEQYCSLPALRPTVLNSLRQLSTSTSILTDPSLVPEQATRAVTEGTLGRPL
B5: YWHAG (protein, UniProt P61982 1-247)
chain: MVDREQLVQKARLAEQAERYDDMAAAMKNVTELNEPLSNEERNLLSVAYKNVVGARRSSWRVISSIEQKTSADGNEKKIEMVRAYREKIEKELEAVCQDVLSLLDNYLIKNCSETQYESKVFYLKMKGDYYRYLAEVATGEKRATVVESSEKAYSEAHEISKEHMQPTHPIRLGLALNYSVFYYEIQNAPEQACHLAKTAFDDAIAELDTLNEDSYKDSTLIMQLLRDNLTLWTSDQQDDDGGEGNN
B6: NCOA5 (protein, UniProt Q91W39 1-579)
chain: MNTAPSRPSPTRRDPYSFGDSRDTRRDRSPIRGSPRREPRDGRNGRDARDSRDIRDPRDLRDRRDSRDIRDHRDSRSVREARDLRDFRDFRDLRDSRDFRDHRDPVYDRYRDIRDSRDPLYRREGSYDRYLRVDDYCRRKDDSYFDRYRDSFDGRGPPGPESQSRAKERLKREERRREELYRRYFEEIQRRFDAERPVDCSVIVVNKQTKDYAESVGRKVRDLGMVVDLIFLNTEVSLSQALEDVSRGGSPFAIVITQQHQIHRSCTVNIMFGTPQEHRNMPQADAMVLVARNYERYKNDCREKEREEIARQAAKMANDAILQERDRGGPEEGGRGGHPPAIQSLINLLADNRYLTAEETDKIINYLRERKERLLRSSADSLPGPISRQPLGAASGSSLKSQPSSQPLQSGQVLPSATPTPAAPPTSQQELQAKILSLFNSGAVAANSSSASPSVATGSSQNQNFSTAANSQPQQRPQASGNQPPNIVGQAGSARNMGPRPGAPSQGLFGQPSSRLAPASTMASQRPVSSTGINFDNPSVQKALDTLIQSGPALSHLVSQTAAQVGRPQAPMGSYQRHY

The experiment deals with Glucocorticoid Receptor (mouse (endogenous in liver)) (UniProt P06537). Briefly: affinity purification with mass spectrometry; ChIP-MS: GR ChIP (6 µg anti-GR or IgG) from livers of control and caloric restricted mice at ZT12, four biological replicates; on-bead trypsin digestion, timsTOF pro2; enrichment GR over IgG.
CEBPα (from UniProt P53566 1-359): the binding entry is “binds”.
In the case of CEBPβ (from UniProt P28033 1-296), the binding result is “binds”.
The result for DEPTOR (from UniProt Q570Y9 1-409) reads “binds”; that for LRH-1 (from UniProt P45448 1-560), “binds”; that for LXRβ (from UniProt Q60644 1-446), “binds”.
The result for PRKAα2 (from UniProt Q8BRK8 1-552) reads “binds”; that for PRKAγ1 (from UniProt O54950 1-330), “binds”; that for STAT5a (from UniProt P42230 1-793), “binds”.
To STAT5b (from UniProt P42232 1-786) belongs “binds”.
For B1, the binding result is “binds”.
For B2, the binding entry was “binds”.
To B3 belongs “binds”; to B4, “binds”; to B5, “binds”.
Take B6: the binding entry is recorded as “binds”.
